Reference: patent US11479802B2, “Assays for screening activity of modulators of members of the hydroxy steroid (17-beta) dehydrogenase (HSD17B) family” (Regeneron Pharmaceuticals, Inc., priority 2017, dated 2022)
For at least one compound, name, drawing or mass did not settle the structure.

Key:
[1] = target: T1, human HSD17B13 (Homo sapiens, UniProt Q7Z5P4); assay: Substrate screening of steroid and bioactive lipid libraries against purified recombinant HSD17B13 (NADH-linked luciferase assay); format: biochemical; settings: 500 μM NAD+, 100 ng enzyme, 3 hours at 23° C.
T1 sequence (Q7Z5P4 20-300): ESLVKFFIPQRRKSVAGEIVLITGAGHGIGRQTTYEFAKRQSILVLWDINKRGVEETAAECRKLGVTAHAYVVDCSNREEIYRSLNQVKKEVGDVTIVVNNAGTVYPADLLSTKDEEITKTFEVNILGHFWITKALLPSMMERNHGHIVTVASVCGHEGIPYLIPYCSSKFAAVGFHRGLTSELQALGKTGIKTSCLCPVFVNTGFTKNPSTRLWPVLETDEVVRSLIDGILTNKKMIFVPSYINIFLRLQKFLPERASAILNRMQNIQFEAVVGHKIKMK
Procedure: To understand the functional consequences of premature truncation of the HSD17B13 protein due to rs72613567:TA (the associated variant, rs72613567, is an insertion of an adenine adjacent to the donor splice site of exon six (TA allele)), the enzymatic activity of isoforms A and D was evaluated in vitro using recombinant protein and nicotinamide […] dinucleotide as cofactor. Reactions were performed in a final volume of 40 μl of assay buffer (0.2 M Tris-HCl, pH 7.5) which contained 500 μM NAD^+, 5 μM bioactive lipid or 50 μM steroid (all in a final concentration of 5% DMSO), and 100 ng of recombinant human HSD17B13. Reactions were incubated for 3 hours, at 23° C., after which an equal volume detection reagent was added. Following a 1 hour incubation at 23° C., the relative light units (RLUs) were measured on an Envision Plate Reader (Perkin Elmer). Raw RLU values were normalized as percent of control (50 μM estradiol) following subtraction of negative control (5% DMSO) using the following formula: Percent of control (POC)=100×(Sample (RLU)−Negative CTRLaverage)/(Positive CTRLaverage−Negative CTRLaverage).

[2] = target: T1, human HSD17B13; assay: Biochemical NADH-linked screen of compound libraries as substrates for HSD17B13 (Example 1); settings: 50 μM substrate, 0.5 mM NAD+, 24 hr at 25 degrees C.
Procedure: A biochemical assay was employed to screen the compounds from the library. The assay employed the following reaction conditions: 0.1 M Potassium phosphate buffer pH 7.5, 0.5 mM NAD^+, 50 μM substrate in DMSO 2% reaction volume or DMSO alone (no substrate) as a control, and 1 μl of purified enzyme or green fluorescent protein (GFP) as a control, with a final reaction volume of 100 microliters. Test samples were subject to a 24 hr incubation at 25 degrees C. After incubation, 20 μL reaction above+20 μL luciferase were incubated at room temperature for 1 h and read on an Envision Plate Reader (Perkin Elmer).

SMILES	HSD17B13 Enzymatic Activity Relative Light Units ([1]; Steroid Library, 50 μM steroid)	HSD17B13 Enzymatic Activity Relative Light Units ([1]; Bioactive Lipid Library, 5 μM bioactive lipid (Estradiol Control 50 μM))	HSD17B13 Enzymatic Activity Relative Light Units ([1]; Steroid Library, 50 μM steroid, listed as Beta-estradiol)	HSD17B13 Enzymatic Activity Relative Light Units ([1]; Steroid Library, 50 μM steroid, listed as Estradiol Control)	suitability as substrate for HSD17B13 [2]
C[C@]12CC[C@@H]3c4ccc(O)cc4CC[C@H]3[C@@H]1CCC2=O [Estrone]	186200 RLU				
C[C@]12CC[C@@H]3c4ccc(O)cc4CC[C@H]3[C@@H]1CC[C@@H]2O [Estradiol]	5070800 RLU	1548190 RLU	4292760 RLU	5885860 RLU	suitable substrates
